This is one part of the list.
Key:
Test in all cases: log2 fold change, soluble protein after heating vs DMSO (PISA); higher = thermal stabilisation; K562 lysate, 10 uM; active = over 0.2 and 3.5 SD of the protein, either way, in both replicates (recomputed)
erlotinib = compound: C#Cc1cccc(Nc2ncnc3cc(OCCOC)c(OCCOC)cc23)c1 [erlotinib]
Procedure, shortened: (§1)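 The values are log-two fold changes in thermal stability compared with solvent controls and come from duplicates. They were obtained by TMTpro 16plex LC-MS/MS, with channel sums equalised, on the supernatant after 21,000xg for 90 min. That supernatant came from crude K562 extract at 1 mg/mL protein treated with 10 μM compound for 30 min, heated for 3 min across 48°C-58°C, pooled and brought to 0.5% NP-40 at 4°C.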

Amino acid sequences for entries named in this document (tags omitted). A change or cut given only in a name is not applied to a line headed by its entry.
UniProt Q8TF05: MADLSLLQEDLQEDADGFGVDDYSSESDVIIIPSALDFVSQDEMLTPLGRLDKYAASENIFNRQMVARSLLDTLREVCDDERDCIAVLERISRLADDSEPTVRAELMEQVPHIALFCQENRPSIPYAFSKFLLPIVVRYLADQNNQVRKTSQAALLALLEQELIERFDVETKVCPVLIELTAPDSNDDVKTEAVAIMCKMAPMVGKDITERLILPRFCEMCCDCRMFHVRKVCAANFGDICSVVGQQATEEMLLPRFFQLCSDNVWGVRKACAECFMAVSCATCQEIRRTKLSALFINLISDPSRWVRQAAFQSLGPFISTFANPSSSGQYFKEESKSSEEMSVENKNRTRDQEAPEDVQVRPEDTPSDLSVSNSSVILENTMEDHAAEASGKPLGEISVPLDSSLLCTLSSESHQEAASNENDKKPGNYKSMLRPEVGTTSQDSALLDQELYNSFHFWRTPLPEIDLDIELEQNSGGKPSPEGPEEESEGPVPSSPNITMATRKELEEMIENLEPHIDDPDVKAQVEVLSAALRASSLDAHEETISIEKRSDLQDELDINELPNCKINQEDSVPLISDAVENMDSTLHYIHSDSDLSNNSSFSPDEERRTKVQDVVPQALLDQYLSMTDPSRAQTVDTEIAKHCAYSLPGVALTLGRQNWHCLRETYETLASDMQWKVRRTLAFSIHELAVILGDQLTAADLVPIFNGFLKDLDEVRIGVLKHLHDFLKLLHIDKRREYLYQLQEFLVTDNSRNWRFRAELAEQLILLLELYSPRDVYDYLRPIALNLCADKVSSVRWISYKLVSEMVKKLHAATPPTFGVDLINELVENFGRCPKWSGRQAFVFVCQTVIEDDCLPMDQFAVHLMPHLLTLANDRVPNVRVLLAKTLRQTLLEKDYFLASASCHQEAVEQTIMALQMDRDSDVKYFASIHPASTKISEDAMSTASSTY
UniProt P63098, whole entry, looked up: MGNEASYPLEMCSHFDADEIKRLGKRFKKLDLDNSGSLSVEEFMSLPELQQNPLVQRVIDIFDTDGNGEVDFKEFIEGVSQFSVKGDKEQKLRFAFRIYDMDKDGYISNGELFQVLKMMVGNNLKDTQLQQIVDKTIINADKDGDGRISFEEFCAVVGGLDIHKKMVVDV
UniProt Q92733: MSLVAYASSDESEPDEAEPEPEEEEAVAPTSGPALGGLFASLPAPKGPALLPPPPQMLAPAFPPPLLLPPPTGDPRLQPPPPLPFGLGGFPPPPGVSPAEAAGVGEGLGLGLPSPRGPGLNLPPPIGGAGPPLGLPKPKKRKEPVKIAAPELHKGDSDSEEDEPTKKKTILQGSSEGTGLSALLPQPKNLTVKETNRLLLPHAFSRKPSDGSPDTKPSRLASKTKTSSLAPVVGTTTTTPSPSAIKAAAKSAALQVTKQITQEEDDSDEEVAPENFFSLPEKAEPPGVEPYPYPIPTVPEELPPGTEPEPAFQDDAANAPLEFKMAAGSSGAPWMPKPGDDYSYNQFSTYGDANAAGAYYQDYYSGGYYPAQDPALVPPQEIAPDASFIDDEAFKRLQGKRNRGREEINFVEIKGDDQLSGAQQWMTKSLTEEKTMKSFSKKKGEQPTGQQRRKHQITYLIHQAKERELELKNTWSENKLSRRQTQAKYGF
UniProt Q9Y478: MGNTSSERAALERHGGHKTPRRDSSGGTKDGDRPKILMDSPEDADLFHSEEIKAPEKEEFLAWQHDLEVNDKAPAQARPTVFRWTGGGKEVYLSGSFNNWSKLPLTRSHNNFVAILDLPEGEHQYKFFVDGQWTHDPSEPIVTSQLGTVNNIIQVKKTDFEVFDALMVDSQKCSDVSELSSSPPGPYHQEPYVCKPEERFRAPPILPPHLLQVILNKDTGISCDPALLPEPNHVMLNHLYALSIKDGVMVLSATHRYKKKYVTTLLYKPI
UniProt Q96LW4: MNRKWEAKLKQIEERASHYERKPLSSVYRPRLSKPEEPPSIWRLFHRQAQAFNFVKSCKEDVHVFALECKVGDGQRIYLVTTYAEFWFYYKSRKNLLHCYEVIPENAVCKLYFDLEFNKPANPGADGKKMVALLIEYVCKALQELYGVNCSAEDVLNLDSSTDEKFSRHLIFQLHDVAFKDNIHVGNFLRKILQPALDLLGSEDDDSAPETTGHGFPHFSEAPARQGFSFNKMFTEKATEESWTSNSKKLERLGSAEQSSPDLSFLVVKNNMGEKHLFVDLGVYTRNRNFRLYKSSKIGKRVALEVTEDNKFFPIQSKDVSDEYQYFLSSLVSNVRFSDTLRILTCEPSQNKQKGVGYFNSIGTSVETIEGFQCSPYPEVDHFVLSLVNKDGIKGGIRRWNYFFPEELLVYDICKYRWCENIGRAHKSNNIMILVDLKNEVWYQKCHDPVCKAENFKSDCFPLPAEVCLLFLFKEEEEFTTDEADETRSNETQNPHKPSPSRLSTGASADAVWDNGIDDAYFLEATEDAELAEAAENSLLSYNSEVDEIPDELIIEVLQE
UniProt O94806: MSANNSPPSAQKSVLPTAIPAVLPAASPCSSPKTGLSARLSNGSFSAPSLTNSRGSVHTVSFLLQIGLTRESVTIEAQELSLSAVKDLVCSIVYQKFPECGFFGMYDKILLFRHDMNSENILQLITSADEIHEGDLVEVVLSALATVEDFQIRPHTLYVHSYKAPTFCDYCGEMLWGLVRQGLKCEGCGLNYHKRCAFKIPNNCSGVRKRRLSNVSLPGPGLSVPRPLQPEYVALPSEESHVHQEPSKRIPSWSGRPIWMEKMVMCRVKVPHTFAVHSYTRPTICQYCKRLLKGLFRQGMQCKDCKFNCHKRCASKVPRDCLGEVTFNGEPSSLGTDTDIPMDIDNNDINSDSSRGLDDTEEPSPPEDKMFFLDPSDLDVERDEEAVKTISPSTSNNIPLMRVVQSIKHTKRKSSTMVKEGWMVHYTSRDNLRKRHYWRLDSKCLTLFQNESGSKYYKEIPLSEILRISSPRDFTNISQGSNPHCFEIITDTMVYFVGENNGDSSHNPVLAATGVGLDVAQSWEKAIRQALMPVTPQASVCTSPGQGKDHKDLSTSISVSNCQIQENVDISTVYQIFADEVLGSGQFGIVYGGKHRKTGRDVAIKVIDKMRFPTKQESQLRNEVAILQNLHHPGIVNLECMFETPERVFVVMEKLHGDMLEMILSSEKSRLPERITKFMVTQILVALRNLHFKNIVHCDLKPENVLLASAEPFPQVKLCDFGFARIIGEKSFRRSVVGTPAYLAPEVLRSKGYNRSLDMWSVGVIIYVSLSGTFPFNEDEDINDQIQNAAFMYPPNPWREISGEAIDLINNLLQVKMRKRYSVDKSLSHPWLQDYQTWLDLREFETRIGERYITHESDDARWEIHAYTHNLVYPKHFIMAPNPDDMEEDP
UniProt P05771, whole entry, looked up: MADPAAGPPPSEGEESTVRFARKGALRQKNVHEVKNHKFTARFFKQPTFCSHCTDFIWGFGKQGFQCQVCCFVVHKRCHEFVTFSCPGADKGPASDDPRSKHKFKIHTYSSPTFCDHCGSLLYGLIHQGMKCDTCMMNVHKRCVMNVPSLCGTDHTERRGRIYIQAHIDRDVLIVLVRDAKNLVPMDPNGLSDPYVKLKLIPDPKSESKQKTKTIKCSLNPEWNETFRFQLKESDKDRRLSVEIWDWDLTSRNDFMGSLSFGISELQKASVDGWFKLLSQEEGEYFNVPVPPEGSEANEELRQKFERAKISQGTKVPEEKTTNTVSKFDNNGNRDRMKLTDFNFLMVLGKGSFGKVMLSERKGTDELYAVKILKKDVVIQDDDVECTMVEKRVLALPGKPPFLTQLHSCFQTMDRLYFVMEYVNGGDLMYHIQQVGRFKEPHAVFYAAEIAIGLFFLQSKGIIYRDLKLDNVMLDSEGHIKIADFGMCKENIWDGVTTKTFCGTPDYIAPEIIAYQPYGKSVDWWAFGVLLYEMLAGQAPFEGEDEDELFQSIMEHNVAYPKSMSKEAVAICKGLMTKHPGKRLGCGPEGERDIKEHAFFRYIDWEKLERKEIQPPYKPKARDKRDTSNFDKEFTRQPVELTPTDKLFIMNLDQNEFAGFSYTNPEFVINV
UniProt P32119: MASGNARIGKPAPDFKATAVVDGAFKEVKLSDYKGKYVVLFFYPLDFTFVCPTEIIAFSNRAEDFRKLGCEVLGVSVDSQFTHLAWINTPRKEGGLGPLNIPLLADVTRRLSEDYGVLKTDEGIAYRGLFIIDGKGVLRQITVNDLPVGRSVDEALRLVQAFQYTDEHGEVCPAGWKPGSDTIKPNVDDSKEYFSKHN
UniProt P41236: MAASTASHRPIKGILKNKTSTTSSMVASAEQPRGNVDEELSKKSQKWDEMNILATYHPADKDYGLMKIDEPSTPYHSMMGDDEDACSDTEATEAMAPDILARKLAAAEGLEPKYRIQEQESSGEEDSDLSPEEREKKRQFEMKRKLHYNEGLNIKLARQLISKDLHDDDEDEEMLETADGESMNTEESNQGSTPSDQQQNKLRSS
UniProt O43741: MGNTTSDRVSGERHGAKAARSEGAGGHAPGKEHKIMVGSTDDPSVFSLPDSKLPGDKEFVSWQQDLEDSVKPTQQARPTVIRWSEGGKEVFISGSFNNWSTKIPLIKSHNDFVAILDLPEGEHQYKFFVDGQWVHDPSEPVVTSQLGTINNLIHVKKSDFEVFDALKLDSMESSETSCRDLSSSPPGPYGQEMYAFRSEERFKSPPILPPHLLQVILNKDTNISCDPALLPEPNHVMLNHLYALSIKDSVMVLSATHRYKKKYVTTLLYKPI
UniProt Q13362, whole entry, looked up: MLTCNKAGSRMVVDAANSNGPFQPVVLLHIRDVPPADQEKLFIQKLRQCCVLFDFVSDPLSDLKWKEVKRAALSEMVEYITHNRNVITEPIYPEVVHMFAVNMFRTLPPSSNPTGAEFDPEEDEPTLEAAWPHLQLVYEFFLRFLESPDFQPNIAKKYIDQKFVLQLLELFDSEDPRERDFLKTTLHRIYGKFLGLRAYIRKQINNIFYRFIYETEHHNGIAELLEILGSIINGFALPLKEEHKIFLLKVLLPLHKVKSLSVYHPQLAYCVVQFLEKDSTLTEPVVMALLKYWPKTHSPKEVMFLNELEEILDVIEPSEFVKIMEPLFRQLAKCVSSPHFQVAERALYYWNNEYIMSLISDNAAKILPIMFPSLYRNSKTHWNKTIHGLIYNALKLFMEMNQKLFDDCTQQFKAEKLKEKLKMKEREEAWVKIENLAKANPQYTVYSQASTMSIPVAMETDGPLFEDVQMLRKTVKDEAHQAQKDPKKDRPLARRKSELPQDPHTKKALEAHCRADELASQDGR
UniProt P14314: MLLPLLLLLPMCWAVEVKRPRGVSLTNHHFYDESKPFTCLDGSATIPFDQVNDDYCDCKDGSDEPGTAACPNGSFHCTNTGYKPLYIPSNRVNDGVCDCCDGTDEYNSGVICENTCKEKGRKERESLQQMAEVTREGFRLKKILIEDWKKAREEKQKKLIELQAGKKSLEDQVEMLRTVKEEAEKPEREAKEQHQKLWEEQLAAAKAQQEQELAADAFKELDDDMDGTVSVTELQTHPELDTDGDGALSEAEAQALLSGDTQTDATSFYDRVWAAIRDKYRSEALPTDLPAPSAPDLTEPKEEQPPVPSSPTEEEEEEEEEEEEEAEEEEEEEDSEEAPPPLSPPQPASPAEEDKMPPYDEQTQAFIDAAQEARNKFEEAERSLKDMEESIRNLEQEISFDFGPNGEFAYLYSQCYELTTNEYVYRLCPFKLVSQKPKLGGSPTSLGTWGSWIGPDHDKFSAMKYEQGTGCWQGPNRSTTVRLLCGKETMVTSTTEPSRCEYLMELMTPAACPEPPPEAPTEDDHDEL
UniProt P62714, whole entry, looked up: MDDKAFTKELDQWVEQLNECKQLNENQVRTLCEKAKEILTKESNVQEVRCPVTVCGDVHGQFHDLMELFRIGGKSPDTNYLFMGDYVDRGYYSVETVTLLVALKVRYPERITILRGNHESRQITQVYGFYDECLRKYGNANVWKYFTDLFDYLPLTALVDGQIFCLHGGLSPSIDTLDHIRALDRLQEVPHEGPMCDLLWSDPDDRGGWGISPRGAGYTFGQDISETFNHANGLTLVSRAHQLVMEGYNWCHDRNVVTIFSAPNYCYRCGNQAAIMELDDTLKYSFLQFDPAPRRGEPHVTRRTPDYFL
UniProt Q99873, whole entry, looked up: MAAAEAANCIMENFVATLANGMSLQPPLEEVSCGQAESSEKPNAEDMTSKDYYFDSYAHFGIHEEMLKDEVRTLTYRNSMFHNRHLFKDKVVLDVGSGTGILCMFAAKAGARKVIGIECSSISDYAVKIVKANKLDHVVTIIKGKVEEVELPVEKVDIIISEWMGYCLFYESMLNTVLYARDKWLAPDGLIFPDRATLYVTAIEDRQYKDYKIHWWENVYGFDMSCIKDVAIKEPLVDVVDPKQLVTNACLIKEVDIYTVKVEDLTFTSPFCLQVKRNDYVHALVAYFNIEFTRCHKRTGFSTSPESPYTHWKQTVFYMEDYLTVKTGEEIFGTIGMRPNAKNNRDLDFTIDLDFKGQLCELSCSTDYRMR

[1] = compound: C/C(=N\NC(=O)C1=CC(=CC=C1)S(=O)(=O)N2CCOCC2)/C3=C(C=CC(=C3)Cl)O
Procedure, shortened: as §1

[2] = compound: C1=CC(=CC=C1C2=NC3=C(N2)C=C(C=C3)C(=O)N)OC4=CC=C(C=C4)Cl
Procedure, shortened: as §1

[3] = compound: C1=CC2=C(C=CC(=C2)/C=C\3/C(=O)NC(=NCC4=CC=CS4)S3)N=C1
Procedure, shortened: as §1

[4] = compound: C1=CC2=NC=CN=C2C=C1/C=C/3\C(=O)NC(=O)S3
Procedure, shortened: as §1

[5] = compound: C1=CC=C(C=C1)C2=NC(=C(N2)C3=CC=NC=C3)C4=CC(=C(C=C4)Cl)O
Procedure, shortened: as §1

[6] = compound: C1=CC=C2C(=C1)C3=NNC4=CC=CC(=C43)C2=O
Procedure, shortened: as §1

[7] = compound: C1CCN(C1)C(=O)NC2=CC=CC(=C2)NC3=NC=C(C(=N3)NCCC4=CN=CN4)Br
Procedure, shortened: as §1

[8] = compound: C1CN(CCC1(CC2=CC=C(C=C2)Cl)N)C3=NC=NC4=C3C=CN4
Procedure, shortened: as §1

IRAK-1-4 Inhibitor I = compound: C1COCCN1CCN2C3=CC=CC=C3N=C2NC(=O)C4=CC(=CC=C4)[N+](=O)[O-] [IRAK-1-4 Inhibitor I]
Procedure, shortened: as §1

Measured: log2 fold change

PPP4R1 (UniProt Q8TF05)
inactive: erlotinib 0.009 | [1] -0.063 | [2] -0.018 | [3] 0.055 | [4] 0.041 | [5] -0.016 | [6] -0.019 | [7] -0.005 | [8] 0.002 | IRAK-1-4 Inhibitor I 0.006

PPP3R1 (UniProt P63098)
inactive: erlotinib -0.022 | [1] 0.042 | [2] 0 | [3] 0.06 | [4] -0.024 | [5] 0.014 | [6] 0.069 | [7] -0.031 | [8] 0.028 | IRAK-1-4 Inhibitor I -0.01

PRCC (UniProt Q92733)
inactive: erlotinib -0.015 | [1] -0.064 | [2] 0.066 | [3] -0.01 | [4] -0.018 | [5] -0.009 | [6] 0.028 | [7] -0.005 | [8] -0.001 | IRAK-1-4 Inhibitor I 0.005

PRKAB1 (UniProt Q9Y478)
inactive: erlotinib 0.004 | [1] -0.01 | [2] 0.017 | [3] -0.02 | [4] 0.031 | [5] -0.005 | [6] 0.135 | [7] 0.166 | [8] 0.088 | IRAK-1-4 Inhibitor I 0.067

PRIMPOL (UniProt Q96LW4)
inactive: erlotinib -0.063 | [1] 0.007 | [2] -0.02 | [3] -0.025 | [4] 0.076 | [5] -0.013 | [6] 0.019 | [7] 0.009 | [8] -0.046 | IRAK-1-4 Inhibitor I 0.059

PRKDC (UniProt P78527)
inactive: erlotinib 0.021 | [1] -0.064 | [2] -0.029 | [3] 0.135 | [5] 0.037 | [6] 0.068 | [7] 0.122 | [8] -0.041 | IRAK-1-4 Inhibitor I 0.02
active: [4] 0.927

PRMT5 (UniProt O14744)
inactive: erlotinib 0.002 | [1] 0 | [2] 0.032 | [3] 0.006 | [4] 0.007 | [5] 0.017 | [6] 0.017 | [7] 0.012 | [8] 0.019 | IRAK-1-4 Inhibitor I 0.003

PRKD3 (UniProt O94806)
inactive: erlotinib -0.041 | [1] 0.105 | [2] -0.123 | [3] -0.145 | [4] 0.039 | [5] 0.115 | [6] 0.123 | [7] -0.163 | [8] -0.115 | IRAK-1-4 Inhibitor I 0.053

PRKACB isoform 2 (UniProt P22694)
inactive: erlotinib -0.033 | [1] -0.03 | [2] -0.03 | [3] 0.04 | [4] -0.028 | [5] -0.019 | [6] 0.129 | IRAK-1-4 Inhibitor I 0.009
active: [7] 0.352 | [8] 0.354

PRKCB isoform 2 (UniProt P05771)
inactive: erlotinib 0.053 | [1] -0.191 | [2] 0.07 | [3] -0.043 | [4] -0.004 | [5] -0.064 | [6] -0.12 | [7] -0.149 | [8] 0.019 | IRAK-1-4 Inhibitor I -0.02

PPT2 isoform 3 (UniProt Q9UMR5)
inactive: erlotinib 0.038 | [1] -0.113 | [2] 0.001 | [3] 0.014 | [4] -0.012 | [5] -0.057 | [6] 0.042 | [7] 0.01 | [8] 0.043 | IRAK-1-4 Inhibitor I 0.122

PROCR (UniProt Q9UNN8)
inactive: erlotinib -0.075 | [1] -0.281 | [2] 0.012 | [3] -0.072 | [4] -0.059 | [5] -0.119 | [6] 0.039 | [7] 0.14 | [8] -0.062 | IRAK-1-4 Inhibitor I 0.028

PRDX2 (UniProt P32119)
inactive: erlotinib -0.026 | [1] 0.019 | [2] -0.003 | [3] -0.05 | [4] 0.006 | [5] 0.014 | [6] 0.012 | [7] 0.03 | [8] -0.003 | IRAK-1-4 Inhibitor I -0.155

PPIL4 (UniProt Q8WUA2)
inactive: erlotinib -0.014 | [1] -0.015 | [2] 0.008 | [3] -0.018 | [4] -0.012 | [5] 0.018 | [6] 0.024 | [7] -0.023 | [8] 0.03 | IRAK-1-4 Inhibitor I -0.028

PPM1A isoform 3 (UniProt P35813)
inactive: erlotinib -0.025 | [1] -0.881 | [2] 0.023 | [3] 0.006 | [4] 0.008 | [5] 0.037 | [6] -0.038 | [7] -0.023 | [8] -0.017 | IRAK-1-4 Inhibitor I 0.001

PPP1R2 (UniProt P41236)
inactive: erlotinib 0.014 | [1] 0.024 | [2] -0.03 | [3] -0.011 | [4] -0.006 | [5] -0.007 | [6] 0.027 | [7] 0.027 | [8] 0.015 | IRAK-1-4 Inhibitor I 0.015

PPP3CC (UniProt P48454)
inactive: erlotinib -0.032 | [1] -0.019 | [2] -0.037 | [3] -0.068 | [4] 0 | [5] -0.051 | [6] 0.012 | [7] -0.044 | [8] -0.042 | IRAK-1-4 Inhibitor I -0.03

PRKAR1B (UniProt P31321)
inactive: erlotinib -0.013 | [1] 0.02 | [2] -0.06 | [3] 0.035 | [4] -0.105 | [5] 0.004 | [6] -0.001 | [7] 0.073 | [8] -0.142 | IRAK-1-4 Inhibitor I -0.047

PPP4R2 (UniProt Q9NY27)
inactive: erlotinib 0.004 | [1] -0.007 | [2] 0.025 | [3] 0.063 | [4] -0.029 | [5] -0.02 | [6] 0.013 | [7] 0.004 | [8] 0.004 | IRAK-1-4 Inhibitor I 0.012

PRKCI (UniProt P41743)
inactive: erlotinib 0.048 | [1] 0.068 | [2] 0.028 | [3] -0.012 | [4] 0.004 | [5] 0.056 | [6] 0.029 | [7] 0.001 | [8] 0.02 | IRAK-1-4 Inhibitor I 0.005

PREB (UniProt Q9HCU5)
inactive: erlotinib 0.002 | [1] -0.034 | [2] 0.023 | [3] 0.036 | [4] 0.04 | [5] -0.004 | [6] -0.067 | [7] -0.026 | [8] 0.017 | IRAK-1-4 Inhibitor I 0.003

PRIM2 (UniProt P49643)
inactive: erlotinib 0.05 | [1] -0.12 | [2] 0.032 | [3] 0.007 | [4] -0.006 | [5] 0.011 | [6] 0.005 | [7] -0.016 | [8] 0.017 | IRAK-1-4 Inhibitor I 0.027

PRKAB2 (UniProt O43741)
inactive: erlotinib -0.032 | [1] -0.165 | [2] 0.096 | [3] -0.041 | [4] 0.031 | [5] 0.039 | [6] 0.153 | [7] 0.196 | [8] 0.042 | IRAK-1-4 Inhibitor I 0.24

PPP2R5C isoform 5 (UniProt Q13362)
inactive: erlotinib -0.013 | [1] -0.025 | [2] -0.009 | [3] -0.025 | [4] 0.016 | [5] -0.002 | [6] -0.039 | [7] 0.01 | [8] 0.027 | IRAK-1-4 Inhibitor I 0.013

PPP1R21 (UniProt Q6ZMI0)
inactive: erlotinib -0.001 | [1] 0 | [2] 0.01 | [3] 0.088 | [4] 0.017 | [5] -0.049 | [6] -0.105 | [7] -0.067 | [8] -0.06 | IRAK-1-4 Inhibitor I 0.055

PRKCSH (UniProt P14314)
inactive: erlotinib -0.027 | [1] 0.013 | [2] 0.01 | [3] -0.012 | [4] -0.012 | [5] 0.023 | [6] 0.07 | [7] 0.027 | [8] -0.027 | IRAK-1-4 Inhibitor I 0.005

PPM1H (UniProt Q9ULR3)
active: [2] 0.25
inactive: erlotinib -0.048 | [1] -0.045 | [3] 0.021 | [4] -0.049 | [5] 0.009 | [6] 0.011 | [7] -0.039 | [8] 0.101 | IRAK-1-4 Inhibitor I 0.037

PPP2CB (UniProt P62714)
inactive: erlotinib -0.019 | [1] 0.011 | [2] 0.021 | [3] 0.02 | [4] -0.008 | [5] -0.004 | [6] 0.008 | [7] 0.005 | [8] 0.004 | IRAK-1-4 Inhibitor I 0.007

PRMT1 (UniProt Q99873)
inactive: erlotinib 0.015 | [1] -0.002 | [2] 0.01 | [3] -0.008 | [4] 0.003 | [5] -0.004 | [6] -0.024 | [7] -0.017 | [8] 0.026 | IRAK-1-4 Inhibitor I 0.006

Fetched one by one from the list above, two records:
PRMT1 (UniProt Q99873)
inactive: erlotinib 0.015 | [1] -0.002 | [2] 0.01 | [3] -0.008 | [4] 0.003 | [5] -0.004 | [6] -0.024 | [7] -0.017 | [8] 0.026 | IRAK-1-4 Inhibitor I 0.006

PPP1R21 (UniProt Q6ZMI0)
inactive: erlotinib -0.001 | [1] 0 | [2] 0.01 | [3] 0.088 | [4] 0.017 | [5] -0.049 | [6] -0.105 | [7] -0.067 | [8] -0.06 | IRAK-1-4 Inhibitor I 0.055

Going on with the list.

PRIM1 (UniProt P49642)
inactive: erlotinib -0.004 | [1] 0.061 | [2] -0.011 | [3] -0.01 | [4] -0.03 | [5] 0.02 | [6] 0 | [7] -0.006 | [8] 0.002 | IRAK-1-4 Inhibitor I 0.003

From the supplement of paper PMC10849652
